This is one part of the list.
Tests used:
Test in all cases: log2 fold change, soluble protein after heating vs DMSO (PISA); higher = thermal stabilisation; K562 cells, 10 uM, 30 min; active = over 0.2 and 3.5 SD of the protein, either way, in both replicates (recomputed)
[1] = compound: CC[C@@H]1C(=O)N(C)c2cnc(Nc3ccc(C(=O)NC4CCN(C)CC4)cc3OC)nc2N1C1CCCC1
Outline: (§1)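 K562 cells at 2×10^6 cells/mL were exposed to 10 μM compound for 30 min, then aliquots were heated for 3 min across 48°C-58°C, pooled, and extracted in PBS containing 0.5% NP-40 at 4°C. The supernatant after 21,000xg for 90 min was taken as soluble protein and measured by TMTpro 16plex LC-MS/MS with channel sums equalised. Thermal stability is reported relative to control samples, with values from duplicates. Fold changes are given on a log2 scale.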

By UniProt entry, the sequences of proteins in these tests, tags left out. Where a name states a change or a piece, a line headed by the entry shows the natural chain unless it says otherwise.
UniProt O00399, whole entry, looked up: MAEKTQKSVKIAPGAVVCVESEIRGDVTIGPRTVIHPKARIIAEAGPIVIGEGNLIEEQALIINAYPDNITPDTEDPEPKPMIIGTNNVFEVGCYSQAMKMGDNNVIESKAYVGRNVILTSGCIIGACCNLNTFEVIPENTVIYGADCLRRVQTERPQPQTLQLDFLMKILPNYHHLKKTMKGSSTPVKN
UniProt Q58WW2: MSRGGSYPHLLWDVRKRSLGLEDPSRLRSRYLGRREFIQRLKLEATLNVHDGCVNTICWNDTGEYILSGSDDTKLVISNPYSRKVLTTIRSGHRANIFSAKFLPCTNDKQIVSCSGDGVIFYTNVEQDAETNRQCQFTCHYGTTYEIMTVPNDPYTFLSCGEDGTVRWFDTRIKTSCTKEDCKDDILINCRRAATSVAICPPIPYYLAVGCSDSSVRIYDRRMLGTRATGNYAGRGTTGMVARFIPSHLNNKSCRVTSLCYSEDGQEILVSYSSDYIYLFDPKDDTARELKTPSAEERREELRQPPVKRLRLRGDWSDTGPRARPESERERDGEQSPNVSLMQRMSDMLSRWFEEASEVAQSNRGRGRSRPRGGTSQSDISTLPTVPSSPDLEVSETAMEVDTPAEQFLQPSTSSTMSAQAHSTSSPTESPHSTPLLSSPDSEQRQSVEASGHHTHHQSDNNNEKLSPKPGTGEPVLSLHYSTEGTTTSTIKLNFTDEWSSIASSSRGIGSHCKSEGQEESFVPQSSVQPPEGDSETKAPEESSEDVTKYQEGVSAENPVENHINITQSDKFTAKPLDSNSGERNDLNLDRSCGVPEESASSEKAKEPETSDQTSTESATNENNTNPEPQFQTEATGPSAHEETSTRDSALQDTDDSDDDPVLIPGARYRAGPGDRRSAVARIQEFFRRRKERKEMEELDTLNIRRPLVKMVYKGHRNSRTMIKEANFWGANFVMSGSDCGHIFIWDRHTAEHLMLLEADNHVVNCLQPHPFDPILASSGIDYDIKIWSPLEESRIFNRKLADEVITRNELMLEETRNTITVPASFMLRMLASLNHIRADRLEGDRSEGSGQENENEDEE
UniProt Q9Y4B6: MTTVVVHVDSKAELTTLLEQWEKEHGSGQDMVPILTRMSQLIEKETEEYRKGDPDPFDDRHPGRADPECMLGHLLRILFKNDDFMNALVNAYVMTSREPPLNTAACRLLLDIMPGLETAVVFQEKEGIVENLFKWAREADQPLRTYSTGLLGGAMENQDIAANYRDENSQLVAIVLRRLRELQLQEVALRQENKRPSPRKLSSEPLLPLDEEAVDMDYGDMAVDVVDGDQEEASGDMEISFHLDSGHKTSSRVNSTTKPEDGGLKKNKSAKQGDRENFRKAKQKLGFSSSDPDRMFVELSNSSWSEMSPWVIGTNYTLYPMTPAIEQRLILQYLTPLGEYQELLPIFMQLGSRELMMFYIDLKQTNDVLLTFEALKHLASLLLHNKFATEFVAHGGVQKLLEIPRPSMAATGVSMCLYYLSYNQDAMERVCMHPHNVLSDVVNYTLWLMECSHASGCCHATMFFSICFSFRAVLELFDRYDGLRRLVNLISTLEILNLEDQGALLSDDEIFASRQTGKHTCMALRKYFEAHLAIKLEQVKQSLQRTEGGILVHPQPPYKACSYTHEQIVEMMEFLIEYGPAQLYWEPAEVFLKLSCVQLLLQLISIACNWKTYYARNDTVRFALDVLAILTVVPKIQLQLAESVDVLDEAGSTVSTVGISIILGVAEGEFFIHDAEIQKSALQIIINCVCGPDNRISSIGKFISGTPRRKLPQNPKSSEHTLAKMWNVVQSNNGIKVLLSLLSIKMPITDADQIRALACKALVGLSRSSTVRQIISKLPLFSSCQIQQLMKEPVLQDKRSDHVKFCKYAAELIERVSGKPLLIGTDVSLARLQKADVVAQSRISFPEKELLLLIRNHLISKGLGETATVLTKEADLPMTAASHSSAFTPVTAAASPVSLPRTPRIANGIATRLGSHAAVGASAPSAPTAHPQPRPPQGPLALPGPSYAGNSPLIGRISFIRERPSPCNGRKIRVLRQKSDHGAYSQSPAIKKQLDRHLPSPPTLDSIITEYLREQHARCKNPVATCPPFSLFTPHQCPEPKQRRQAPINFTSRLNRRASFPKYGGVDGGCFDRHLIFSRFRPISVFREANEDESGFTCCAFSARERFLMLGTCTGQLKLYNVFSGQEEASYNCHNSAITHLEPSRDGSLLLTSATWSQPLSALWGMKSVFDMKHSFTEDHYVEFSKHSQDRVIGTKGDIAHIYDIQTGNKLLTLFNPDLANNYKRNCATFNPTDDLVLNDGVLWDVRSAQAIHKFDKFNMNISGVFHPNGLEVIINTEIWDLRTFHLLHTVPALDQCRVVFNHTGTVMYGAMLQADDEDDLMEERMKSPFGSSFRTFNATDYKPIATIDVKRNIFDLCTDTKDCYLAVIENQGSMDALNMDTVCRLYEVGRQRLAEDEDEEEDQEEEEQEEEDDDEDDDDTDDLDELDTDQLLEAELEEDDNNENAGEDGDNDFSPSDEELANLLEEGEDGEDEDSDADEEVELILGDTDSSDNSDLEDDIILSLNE
UniProt P32321: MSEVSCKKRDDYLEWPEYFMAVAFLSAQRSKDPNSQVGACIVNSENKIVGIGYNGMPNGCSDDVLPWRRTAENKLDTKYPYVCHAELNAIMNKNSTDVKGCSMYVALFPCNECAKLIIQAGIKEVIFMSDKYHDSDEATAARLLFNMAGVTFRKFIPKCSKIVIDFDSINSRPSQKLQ
UniProt Q2VPK5: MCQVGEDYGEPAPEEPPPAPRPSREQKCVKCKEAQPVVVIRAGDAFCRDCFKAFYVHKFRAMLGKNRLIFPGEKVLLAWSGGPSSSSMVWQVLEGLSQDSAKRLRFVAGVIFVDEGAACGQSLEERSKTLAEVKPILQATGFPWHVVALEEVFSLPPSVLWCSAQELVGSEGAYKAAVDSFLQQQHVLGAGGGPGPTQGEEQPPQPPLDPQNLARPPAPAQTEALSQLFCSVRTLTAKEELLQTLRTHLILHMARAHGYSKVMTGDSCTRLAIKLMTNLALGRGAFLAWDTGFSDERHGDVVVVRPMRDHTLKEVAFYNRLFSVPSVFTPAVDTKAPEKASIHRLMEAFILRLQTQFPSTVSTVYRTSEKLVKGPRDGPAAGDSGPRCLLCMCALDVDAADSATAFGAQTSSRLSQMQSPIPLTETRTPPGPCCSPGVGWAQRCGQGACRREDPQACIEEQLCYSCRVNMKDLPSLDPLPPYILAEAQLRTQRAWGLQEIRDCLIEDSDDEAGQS
UniProt Q8WUE5: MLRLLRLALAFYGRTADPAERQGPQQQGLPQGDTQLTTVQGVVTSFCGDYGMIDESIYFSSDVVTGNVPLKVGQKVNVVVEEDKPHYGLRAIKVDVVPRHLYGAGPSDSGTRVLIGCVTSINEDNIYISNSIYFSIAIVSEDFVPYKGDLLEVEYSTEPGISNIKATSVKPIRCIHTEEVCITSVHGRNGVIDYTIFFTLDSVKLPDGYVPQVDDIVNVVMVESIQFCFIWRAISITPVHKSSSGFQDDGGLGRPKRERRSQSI
UniProt Q9H467: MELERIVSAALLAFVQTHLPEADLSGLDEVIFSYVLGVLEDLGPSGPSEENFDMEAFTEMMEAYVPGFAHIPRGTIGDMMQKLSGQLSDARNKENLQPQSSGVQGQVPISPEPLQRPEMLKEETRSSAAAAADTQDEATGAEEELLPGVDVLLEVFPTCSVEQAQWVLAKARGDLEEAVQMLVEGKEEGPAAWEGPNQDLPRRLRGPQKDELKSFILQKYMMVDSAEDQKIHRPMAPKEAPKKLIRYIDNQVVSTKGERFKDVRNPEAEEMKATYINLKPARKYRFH
UniProt Q6UW02: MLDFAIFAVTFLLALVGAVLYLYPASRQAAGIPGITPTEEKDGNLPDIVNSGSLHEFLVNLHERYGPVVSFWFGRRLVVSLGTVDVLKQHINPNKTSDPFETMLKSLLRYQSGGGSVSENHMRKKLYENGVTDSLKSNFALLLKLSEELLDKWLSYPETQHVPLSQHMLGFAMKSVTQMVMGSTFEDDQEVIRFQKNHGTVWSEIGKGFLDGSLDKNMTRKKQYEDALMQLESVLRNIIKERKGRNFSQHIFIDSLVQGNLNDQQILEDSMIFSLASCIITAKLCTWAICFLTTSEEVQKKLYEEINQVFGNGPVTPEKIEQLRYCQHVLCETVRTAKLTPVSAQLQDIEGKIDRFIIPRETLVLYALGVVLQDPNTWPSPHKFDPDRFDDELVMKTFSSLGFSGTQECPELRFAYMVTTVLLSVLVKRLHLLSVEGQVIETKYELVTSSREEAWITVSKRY
UniProt Q9NPI6: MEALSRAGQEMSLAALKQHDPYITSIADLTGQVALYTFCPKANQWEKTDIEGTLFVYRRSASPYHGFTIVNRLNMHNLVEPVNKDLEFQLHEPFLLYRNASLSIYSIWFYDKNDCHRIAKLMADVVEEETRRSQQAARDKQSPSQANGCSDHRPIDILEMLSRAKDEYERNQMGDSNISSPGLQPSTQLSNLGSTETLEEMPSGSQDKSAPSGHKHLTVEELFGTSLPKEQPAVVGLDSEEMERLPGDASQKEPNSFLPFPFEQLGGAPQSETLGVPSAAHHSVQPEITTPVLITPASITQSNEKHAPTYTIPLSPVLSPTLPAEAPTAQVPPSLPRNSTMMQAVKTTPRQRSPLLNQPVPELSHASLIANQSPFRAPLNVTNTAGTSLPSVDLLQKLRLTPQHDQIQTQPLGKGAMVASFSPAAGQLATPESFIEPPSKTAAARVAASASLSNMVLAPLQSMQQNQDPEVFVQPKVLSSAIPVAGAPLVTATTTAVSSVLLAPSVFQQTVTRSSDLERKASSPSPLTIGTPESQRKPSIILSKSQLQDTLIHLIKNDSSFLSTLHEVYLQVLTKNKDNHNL
UniProt Q1MSJ5: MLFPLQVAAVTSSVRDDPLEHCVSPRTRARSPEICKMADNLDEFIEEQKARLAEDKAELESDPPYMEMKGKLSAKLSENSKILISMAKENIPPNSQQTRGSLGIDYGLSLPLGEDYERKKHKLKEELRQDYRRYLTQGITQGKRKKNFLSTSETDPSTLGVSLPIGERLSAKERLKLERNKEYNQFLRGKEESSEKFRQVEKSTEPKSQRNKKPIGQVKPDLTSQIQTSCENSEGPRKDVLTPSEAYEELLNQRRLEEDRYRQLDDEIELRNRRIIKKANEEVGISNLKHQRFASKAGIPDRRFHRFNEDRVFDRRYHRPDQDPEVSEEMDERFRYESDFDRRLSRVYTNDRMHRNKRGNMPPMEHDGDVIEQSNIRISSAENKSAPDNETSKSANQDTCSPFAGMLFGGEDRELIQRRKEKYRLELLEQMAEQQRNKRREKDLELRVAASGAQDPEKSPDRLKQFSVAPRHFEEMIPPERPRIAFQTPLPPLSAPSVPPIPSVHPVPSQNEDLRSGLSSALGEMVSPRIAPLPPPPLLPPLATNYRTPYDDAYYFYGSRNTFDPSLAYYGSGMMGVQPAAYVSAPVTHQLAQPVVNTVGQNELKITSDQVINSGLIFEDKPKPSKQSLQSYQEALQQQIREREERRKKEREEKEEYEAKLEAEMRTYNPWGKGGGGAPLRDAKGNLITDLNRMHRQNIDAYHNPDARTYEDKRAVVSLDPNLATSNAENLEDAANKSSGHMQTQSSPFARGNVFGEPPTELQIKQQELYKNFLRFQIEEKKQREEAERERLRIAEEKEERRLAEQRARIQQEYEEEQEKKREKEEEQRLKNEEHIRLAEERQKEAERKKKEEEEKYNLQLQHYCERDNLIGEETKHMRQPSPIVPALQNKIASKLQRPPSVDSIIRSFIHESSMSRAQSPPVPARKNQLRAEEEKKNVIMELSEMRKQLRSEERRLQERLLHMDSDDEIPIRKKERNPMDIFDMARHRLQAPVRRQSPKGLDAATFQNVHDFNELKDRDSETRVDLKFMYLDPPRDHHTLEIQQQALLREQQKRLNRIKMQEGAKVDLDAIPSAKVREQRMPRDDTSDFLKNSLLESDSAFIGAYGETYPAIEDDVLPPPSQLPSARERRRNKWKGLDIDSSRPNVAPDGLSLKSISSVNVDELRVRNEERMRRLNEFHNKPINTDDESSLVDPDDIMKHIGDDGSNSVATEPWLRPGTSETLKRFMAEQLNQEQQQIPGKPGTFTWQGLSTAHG
UniProt Q9H773: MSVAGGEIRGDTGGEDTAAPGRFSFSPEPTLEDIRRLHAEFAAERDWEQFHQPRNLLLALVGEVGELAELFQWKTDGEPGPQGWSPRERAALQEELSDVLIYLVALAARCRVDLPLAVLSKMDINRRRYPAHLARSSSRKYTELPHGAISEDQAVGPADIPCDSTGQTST

[2] = compound: CC[C@@H]1C(=O)N(C)c2cnc(Nc3ccc(C(=O)N[C@H]4CC[C@H](N5CCN(CC6CC6)CC5)CC4)cc3OC)nc2N1C(C)C [volasertib]
Outline: as §1

[3] = compound: CC[C@H](C)N1C=C(C2=C(C=C(C=C21)C3=CN=C(C=C3)N4CCNCC4)C(=O)NCC5=C(C=C(NC5=O)C)C)C
Outline: as §1

[4] = compound: CC[C@H](C)[C@@H](C(=O)N[C@@H]([C@@H](C)O)C(=O)N[C@@H](CC(C)C)C(=O)[C@]1(CO1)C)NC(=O)[C@H]([C@@H](C)CC)N(C)C(=O)C [epoxomicin]
Outline: as §1

[5] = compound: CCn1cc(-c2ccnc3[nH]c(-c4cccc(CN(C)C)c4)cc23)c(-c2ccc(NC(=O)N(C)C)cc2)n1
Outline: as §1

[6] = compound: CN(C)CC(=O)Nc1ccc2[nH]c(=O)c3ccccc3c2c1
Outline: as §1

[7] = compound: CN1C2=C(C3=C1C(=O)N(N=C3)CC4=CC(=CC=C4)N)SC(=C2)S(=O)C
Outline: as §1

[8] = compound: CN1CCC(CNc2ccc3ncc(-c4cccc(OC(F)(F)F)c4)n3n2)CC1
Outline: as §1

[9] = compound: CCn1c(C(=O)N(C2CC2)C2CC2)cc2c3c(ncn3C)c(Nc3cc(C)n(C)n3)nc21
Outline: as §1

[10] = compound: CN(CCOC1=CC=C(C=C1)C[C@H]2C(=O)NC(=O)S2)C3=CC=CC=N3 (racemic) [rosiglitazone]
Outline: as §1

Row | Target | log2 fold change [1] | log2 fold change [2] | log2 fold change [3] | log2 fold change [4] | log2 fold change [5] | log2 fold change [6] | log2 fold change [7] | log2 fold change [8] | log2 fold change [9] | log2 fold change [10]
1 | CTSB (UniProt P07858) | active: -1.16 | active: -1.72 | inactive: -0.009 | inactive: -0.011 | inactive: -0.047 | inactive: 0.021 | inactive: -0.07 | active: -0.936 |  | 
2 | DCTN6 (UniProt O00399) | inactive: 0.044 | inactive: 0.008 | inactive: -0.027 | inactive: -0.036 | inactive: -0.025 | inactive: -0.019 | inactive: -0.049 | inactive: 0.007 | inactive: -0.026 | inactive: 0.03
3 | DCAF6 isoform 3 (UniProt Q58WW2) | inactive: 0.077 | inactive: 0.05 | inactive: -0.064 | inactive: 0.025 | inactive: -0.03 | inactive: -0.035 | inactive: 0.006 | inactive: 0.004 |  | 
4 | DCAF1 (UniProt Q9Y4B6) | inactive: -0.108 | inactive: -0.142 | inactive: 0.021 | inactive: 0.007 | inactive: -0.049 | inactive: 0.003 | inactive: -0.045 | inactive: -0.109 | inactive: -0.023 | inactive: 0.043
5 | DCTD isoform 2 (UniProt P32321) | inactive: 0.085 | inactive: 0.027 | inactive: -0.023 | inactive: -0.026 | inactive: -0.026 | inactive: -0.004 | inactive: -0.046 | inactive: 0 | inactive: 0.024 | inactive: 0.014
6 | CTU2 (UniProt Q2VPK5) | inactive: -0.006 | inactive: -0.007 | inactive: 0.043 | inactive: 0.01 | inactive: -0.067 | inactive: -0.021 | inactive: -0.095 | inactive: -0.162 | inactive: -0.011 | inactive: 0.038
7 | CT55 (UniProt Q8WUE5) | inactive: -0.024 | inactive: -0.187 | inactive: -0.044 | inactive: -0.018 | inactive: 0.072 | inactive: 0.072 | inactive: -0.082 | inactive: -0.019 | inactive: -0.066 | inactive: -0.036
8 | CUEDC2 (UniProt Q9H467) | inactive: -0.044 | inactive: -0.133 | inactive: 0.033 | inactive: 0.118 | inactive: -0.001 | inactive: -0.01 | inactive: -0.038 | inactive: -0.067 |  | 
9 | CYP20A1 (UniProt Q6UW02) | inactive: -0.062 | inactive: -0.107 | inactive: 0.014 | inactive: 0.002 | inactive: 0.005 | inactive: -0.009 | inactive: -0.059 | inactive: 0.003 | inactive: -0.026 | inactive: 0.037
10 | DCP1A (UniProt Q9NPI6) | inactive: -0.1 | inactive: -0.201 | inactive: 0.151 | inactive: 0.014 | inactive: -0.071 | inactive: 0.061 | inactive: 0.189 | inactive: -0.131 | inactive: -0.04 | inactive: 0.035
11 | CSPP1 (UniProt Q1MSJ5) | inactive: -0.083 | inactive: -0.151 | inactive: -0.039 | inactive: -0.049 | inactive: -0.023 | inactive: 0.036 | inactive: 0.046 | inactive: 0.061 | inactive: -0.03 | inactive: 0.049
12 | DCTPP1 (UniProt Q9H773) | inactive: 0.007 | inactive: -0.016 | inactive: -0.059 | inactive: 0.062 | inactive: -0.032 | inactive: -0.012 | inactive: -0.048 | inactive: 0.201 |  | 

— the supplement of paper PMC10849652
